Results: the supplement of paper PMC11006884
Most of the targets with a hit are listed elsewhere, so they are rarer here than in the full data. This is a noisy data set. The list shows a part of the results, in another mix than the full data.

By UniProt entry, the sequences of proteins in these tests, tags left out. Where a name states a change or a piece, a line headed by the entry shows the natural chain unless it says otherwise.
UniProt O14744, whole entry, looked up: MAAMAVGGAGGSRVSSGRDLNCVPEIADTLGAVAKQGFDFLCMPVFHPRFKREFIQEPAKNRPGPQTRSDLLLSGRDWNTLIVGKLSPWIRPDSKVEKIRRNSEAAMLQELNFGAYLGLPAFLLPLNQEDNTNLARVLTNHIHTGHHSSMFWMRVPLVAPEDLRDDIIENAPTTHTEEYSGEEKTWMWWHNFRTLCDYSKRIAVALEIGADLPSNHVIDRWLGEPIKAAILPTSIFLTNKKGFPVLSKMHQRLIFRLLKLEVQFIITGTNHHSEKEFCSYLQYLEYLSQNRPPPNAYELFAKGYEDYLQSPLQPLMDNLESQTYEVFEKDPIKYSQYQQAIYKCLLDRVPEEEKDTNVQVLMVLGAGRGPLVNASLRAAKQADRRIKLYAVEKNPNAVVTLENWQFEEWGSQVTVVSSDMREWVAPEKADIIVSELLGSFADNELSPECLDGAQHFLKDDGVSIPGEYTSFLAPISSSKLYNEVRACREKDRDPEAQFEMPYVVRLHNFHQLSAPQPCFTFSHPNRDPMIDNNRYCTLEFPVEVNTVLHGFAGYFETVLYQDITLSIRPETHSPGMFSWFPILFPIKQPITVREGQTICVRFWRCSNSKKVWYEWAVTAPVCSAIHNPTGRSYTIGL
UniProt O15111: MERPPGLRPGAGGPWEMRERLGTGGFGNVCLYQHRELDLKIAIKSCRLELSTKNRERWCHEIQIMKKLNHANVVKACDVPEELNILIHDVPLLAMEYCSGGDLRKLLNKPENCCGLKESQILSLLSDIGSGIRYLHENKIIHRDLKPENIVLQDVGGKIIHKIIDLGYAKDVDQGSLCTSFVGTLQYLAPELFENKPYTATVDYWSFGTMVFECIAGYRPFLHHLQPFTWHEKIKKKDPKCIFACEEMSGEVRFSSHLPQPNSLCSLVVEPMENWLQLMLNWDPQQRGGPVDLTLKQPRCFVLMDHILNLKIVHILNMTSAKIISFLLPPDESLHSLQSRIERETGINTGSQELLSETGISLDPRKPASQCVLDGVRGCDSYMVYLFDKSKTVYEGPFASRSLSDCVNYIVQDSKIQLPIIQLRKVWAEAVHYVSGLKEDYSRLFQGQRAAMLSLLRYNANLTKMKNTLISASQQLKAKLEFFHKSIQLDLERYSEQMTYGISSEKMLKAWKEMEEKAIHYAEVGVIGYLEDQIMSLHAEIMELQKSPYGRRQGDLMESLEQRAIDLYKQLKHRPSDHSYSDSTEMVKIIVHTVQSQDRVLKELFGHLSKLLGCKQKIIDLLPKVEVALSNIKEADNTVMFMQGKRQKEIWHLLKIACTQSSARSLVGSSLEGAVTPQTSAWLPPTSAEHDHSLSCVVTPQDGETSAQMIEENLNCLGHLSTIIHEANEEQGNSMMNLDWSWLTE
UniProt O15067: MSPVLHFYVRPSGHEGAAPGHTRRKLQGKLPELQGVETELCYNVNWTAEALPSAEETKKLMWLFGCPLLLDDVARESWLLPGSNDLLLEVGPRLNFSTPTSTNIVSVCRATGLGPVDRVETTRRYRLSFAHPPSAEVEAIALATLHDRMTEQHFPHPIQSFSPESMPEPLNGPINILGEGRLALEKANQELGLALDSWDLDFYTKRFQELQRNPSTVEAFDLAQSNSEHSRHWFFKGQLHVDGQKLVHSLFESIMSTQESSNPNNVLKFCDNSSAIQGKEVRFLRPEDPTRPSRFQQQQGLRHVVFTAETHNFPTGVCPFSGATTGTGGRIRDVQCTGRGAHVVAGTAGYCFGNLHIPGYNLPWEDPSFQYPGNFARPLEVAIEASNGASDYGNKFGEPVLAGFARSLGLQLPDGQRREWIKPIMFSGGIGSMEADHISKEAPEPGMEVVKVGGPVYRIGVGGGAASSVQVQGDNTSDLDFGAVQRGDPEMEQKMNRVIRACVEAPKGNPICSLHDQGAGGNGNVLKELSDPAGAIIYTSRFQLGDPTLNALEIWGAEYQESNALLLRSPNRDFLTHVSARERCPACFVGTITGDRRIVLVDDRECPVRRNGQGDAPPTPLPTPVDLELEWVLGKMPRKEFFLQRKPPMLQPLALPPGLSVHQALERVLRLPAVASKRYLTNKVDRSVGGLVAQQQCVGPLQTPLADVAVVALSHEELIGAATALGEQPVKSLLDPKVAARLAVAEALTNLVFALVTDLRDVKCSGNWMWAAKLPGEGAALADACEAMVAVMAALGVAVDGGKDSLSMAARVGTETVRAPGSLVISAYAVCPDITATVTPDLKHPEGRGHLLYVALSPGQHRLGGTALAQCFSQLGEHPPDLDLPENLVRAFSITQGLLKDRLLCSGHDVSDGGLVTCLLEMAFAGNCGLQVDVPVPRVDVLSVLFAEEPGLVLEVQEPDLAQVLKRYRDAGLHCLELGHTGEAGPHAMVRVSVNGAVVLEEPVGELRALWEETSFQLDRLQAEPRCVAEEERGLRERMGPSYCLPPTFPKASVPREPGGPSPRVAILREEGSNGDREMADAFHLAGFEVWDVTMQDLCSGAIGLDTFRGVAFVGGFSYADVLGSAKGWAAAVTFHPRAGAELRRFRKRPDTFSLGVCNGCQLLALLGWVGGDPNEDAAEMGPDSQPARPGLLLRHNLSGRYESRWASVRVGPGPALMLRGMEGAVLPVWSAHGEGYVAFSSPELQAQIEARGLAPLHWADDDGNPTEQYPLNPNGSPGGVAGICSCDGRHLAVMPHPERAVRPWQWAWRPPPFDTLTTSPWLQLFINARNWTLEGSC
UniProt O43148, whole entry, looked up: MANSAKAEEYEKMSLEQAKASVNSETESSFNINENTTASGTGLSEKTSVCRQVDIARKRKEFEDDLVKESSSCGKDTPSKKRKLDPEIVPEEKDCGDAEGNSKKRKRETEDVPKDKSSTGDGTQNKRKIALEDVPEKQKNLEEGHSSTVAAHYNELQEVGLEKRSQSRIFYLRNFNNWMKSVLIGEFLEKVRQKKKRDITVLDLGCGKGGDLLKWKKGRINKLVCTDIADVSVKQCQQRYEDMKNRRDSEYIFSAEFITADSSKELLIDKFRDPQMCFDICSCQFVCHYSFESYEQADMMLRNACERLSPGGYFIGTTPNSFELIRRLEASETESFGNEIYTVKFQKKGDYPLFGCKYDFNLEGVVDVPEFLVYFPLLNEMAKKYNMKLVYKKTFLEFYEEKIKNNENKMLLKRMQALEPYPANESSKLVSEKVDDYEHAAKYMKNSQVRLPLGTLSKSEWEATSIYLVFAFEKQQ
UniProt O00410: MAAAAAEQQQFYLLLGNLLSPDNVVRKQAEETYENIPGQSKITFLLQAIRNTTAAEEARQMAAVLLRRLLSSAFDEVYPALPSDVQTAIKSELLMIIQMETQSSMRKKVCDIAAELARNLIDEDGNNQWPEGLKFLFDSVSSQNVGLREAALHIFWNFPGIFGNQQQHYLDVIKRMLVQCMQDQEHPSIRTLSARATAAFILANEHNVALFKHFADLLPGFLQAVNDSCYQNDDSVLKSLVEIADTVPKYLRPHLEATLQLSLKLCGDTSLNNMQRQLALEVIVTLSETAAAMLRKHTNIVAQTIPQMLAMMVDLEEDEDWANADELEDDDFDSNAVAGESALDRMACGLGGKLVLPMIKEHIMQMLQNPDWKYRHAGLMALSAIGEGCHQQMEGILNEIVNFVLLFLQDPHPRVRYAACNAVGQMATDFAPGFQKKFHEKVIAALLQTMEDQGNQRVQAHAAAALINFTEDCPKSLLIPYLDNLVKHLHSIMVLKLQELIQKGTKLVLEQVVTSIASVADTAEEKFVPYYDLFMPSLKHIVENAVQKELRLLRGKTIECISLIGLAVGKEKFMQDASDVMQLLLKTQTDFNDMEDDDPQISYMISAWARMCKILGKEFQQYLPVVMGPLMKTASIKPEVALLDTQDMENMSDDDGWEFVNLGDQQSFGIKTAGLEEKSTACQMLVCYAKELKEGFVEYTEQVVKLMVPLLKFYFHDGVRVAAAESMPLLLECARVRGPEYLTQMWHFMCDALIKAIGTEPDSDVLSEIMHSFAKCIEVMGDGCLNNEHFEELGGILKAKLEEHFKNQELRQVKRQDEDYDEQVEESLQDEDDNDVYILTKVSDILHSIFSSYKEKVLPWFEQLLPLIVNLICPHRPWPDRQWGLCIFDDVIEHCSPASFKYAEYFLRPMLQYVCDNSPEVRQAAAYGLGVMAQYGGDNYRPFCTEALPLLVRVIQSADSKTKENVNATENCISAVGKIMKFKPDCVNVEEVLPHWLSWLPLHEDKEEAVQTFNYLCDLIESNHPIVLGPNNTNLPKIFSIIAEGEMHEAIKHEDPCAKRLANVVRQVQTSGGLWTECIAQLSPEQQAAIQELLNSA
UniProt O15381: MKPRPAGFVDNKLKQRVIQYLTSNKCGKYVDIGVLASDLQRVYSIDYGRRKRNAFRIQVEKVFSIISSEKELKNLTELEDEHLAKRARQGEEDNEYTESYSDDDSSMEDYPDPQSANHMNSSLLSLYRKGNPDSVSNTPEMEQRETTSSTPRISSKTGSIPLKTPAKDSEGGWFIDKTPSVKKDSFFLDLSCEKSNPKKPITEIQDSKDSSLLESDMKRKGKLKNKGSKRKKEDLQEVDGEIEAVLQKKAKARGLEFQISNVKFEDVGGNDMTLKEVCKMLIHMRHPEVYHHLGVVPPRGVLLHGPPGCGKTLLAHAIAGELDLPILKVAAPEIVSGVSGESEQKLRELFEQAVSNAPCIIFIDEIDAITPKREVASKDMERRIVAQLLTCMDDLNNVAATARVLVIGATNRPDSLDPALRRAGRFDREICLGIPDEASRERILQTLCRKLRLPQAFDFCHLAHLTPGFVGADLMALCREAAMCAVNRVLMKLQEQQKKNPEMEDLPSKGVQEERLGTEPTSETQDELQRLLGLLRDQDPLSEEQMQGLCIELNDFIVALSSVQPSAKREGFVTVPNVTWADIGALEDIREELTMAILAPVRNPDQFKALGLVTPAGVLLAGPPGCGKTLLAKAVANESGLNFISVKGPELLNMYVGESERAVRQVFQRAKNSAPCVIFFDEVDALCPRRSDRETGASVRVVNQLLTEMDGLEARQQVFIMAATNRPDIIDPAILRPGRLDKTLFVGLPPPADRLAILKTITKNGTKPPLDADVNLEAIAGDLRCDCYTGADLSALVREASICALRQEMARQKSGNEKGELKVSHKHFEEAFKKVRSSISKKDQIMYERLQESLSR
UniProt O00471: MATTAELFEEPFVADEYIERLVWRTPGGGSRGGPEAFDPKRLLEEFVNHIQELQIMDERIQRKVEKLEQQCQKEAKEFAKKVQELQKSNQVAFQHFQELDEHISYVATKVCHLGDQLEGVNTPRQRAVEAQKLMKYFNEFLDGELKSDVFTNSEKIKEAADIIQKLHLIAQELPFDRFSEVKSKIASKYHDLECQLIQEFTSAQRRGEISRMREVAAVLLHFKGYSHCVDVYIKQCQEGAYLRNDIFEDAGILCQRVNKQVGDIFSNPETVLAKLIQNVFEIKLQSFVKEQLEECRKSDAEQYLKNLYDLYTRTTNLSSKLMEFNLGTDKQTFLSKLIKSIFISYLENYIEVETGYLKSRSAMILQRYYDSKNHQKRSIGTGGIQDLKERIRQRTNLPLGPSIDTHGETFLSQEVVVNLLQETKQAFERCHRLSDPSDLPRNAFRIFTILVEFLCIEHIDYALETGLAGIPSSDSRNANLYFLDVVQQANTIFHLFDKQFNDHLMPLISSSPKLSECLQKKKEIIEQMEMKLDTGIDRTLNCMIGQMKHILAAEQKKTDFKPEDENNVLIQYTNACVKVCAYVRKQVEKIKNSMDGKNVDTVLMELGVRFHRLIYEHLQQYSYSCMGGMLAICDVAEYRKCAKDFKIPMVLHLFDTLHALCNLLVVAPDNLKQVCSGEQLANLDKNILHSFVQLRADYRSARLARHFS
UniProt O15213: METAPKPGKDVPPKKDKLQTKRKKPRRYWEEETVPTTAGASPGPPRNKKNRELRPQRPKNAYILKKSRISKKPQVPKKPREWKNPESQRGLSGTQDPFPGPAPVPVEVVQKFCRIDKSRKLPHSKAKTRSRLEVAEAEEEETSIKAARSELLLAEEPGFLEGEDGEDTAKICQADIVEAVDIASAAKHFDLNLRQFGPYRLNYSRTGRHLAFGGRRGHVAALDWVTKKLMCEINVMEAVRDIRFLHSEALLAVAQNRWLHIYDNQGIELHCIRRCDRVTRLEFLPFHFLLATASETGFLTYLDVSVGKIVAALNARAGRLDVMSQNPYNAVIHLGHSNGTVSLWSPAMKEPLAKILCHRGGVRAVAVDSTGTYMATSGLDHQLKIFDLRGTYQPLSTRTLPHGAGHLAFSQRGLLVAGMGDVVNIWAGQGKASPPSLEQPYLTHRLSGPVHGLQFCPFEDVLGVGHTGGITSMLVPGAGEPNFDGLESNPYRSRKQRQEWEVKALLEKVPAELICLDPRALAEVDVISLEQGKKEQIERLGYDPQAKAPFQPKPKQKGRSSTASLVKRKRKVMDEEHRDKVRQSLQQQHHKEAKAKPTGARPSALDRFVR
UniProt O00244: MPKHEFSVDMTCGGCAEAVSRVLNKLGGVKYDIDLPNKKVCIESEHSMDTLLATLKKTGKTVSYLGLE

Compound: COC(=O)/C=C/c1ccccc1 [methyl cinnamate]
Assay: log2 ratio of iodoacetamide-alkyne labeling of the cysteine site, DMSO over compound (competition); higher = stronger covalent engagement of the cysteine by the compound, active = 1 or more
Settings: 500 µM; treatment time 1 h; system: HEK293T cell lysate
Summary of the method: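 HEK293T lysate (2 mg/mL) was treated with DMSO or electrophile (500 µM, 1 h, ambient temperature), then iodoacetamide alkyne (1 h), clicked to sCIP-TMT reagents, pooled, trypsin-digested overnight at 37 °C, streptavidin-enriched and acid-eluted. Peptides were run on Orbitrap Eclipse LC-MS/MS with FAIMS and quantified in FragPipe. The log2 competition ratio per cysteine is mean control-channel over mean compound-channel reporter intensity. Duplicate channels and three replicates were used, and cysteines quantified in only one replicate were excluded.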

log2 ratio of iodoacetamide-alkyne labeling, inactive:
UniProt O14950_C109 0.289
PRMT5 C22 (UniProt O14744) 0.307
UniProt O15111_C406 0.137
PFAS C270 (UniProt O15067) 0.25
PES1 C391 (UniProt O00541) 0.132
UniProt O00567_C142 0.174
RNMT C50 (UniProt O43148) 0.0342
KDM6A C384 (UniProt O15550) 0.228
IPO5 C915 (UniProt O00410) -0.0907
UniProt O00567_C384 -0.277
PFAS C697 (UniProt O15067) 0.648
PODXL C344 (UniProt O00592) 0.22
POLRMT C119 (UniProt O00411) 0.27
PFAS C1338 (UniProt O15067) 0.0402
CD3EAP C150 (UniProt O15446) 0.221
RNMT C95 (UniProt O43148) 0.518
PDHX C307 (UniProt O00330) 0.179
HMGB3 C23 (UniProt O15347) -0.0532
DNM1L C505 (UniProt O00429) -0.141
NDUFA4 C44 (UniProt O00483) 0.142
GEMIN2 C34 (UniProt O14893) 0.0446
NVL C626 (UniProt O15381) 0.0717
PJA2 C224 (UniProt O43164) -0.122
DDX3X C468 (UniProt O00571) 0.0716
TAF4 C867 (UniProt O00268) 0.198
ZNF609 C178 (UniProt O15014) 0.0569
EXOC5 C675 (UniProt O00471) 0.257
UniProt O14618_C227 0.294
PHGDH C19 (UniProt O43175) -0.118
ZZEF1 C2466 (UniProt O43149) -0.217
ARID1A C1968 (UniProt O14497) 0.167
PHGDH C281 (UniProt O43175) 0.212
WDR46 C456 (UniProt O15213) -0.197
ATOX1 C12 (UniProt O00244) 0.458
SPTBN2 C607 (UniProt O15020) 0.259
IPO5 C420 (UniProt O00410) -0.0788
DYNC1LI2 C191 (UniProt O43237) 0.33

At a glance, some entries already given:
log2 ratio of iodoacetamide-alkyne labeling, inactive:
WDR46 C456 (UniProt O15213) -0.197
ATOX1 C12 (UniProt O00244) 0.458
SPTBN2 C607 (UniProt O15020) 0.259
